Data source: PubChem BioAssay AID1259268 (Sanger Institute, 2017)
The deposit covers 160 reagents; below is an unselected part. Of all reagents, 58 (36%) got an active call. 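Trametinib by itself roughly halved viability, making its arm harsher than the cetuximab and BYL719 arms.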 Unmarked entries are inactive. The numbers tell different reagents against one gene apart. No viability above 1 is reported: the scale is capped. Not given: the amount of reagent, the time to read-out.

Screen: 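Kinase genes whose loss makes colon cancer cells more drug sensitive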 (follow-up of hits)
System: human SNUC1 colorectal cancer cells
Reagents: single siRNA against human genes
Treatment: anchor drugs added a day after transfection: BYL719 1 µM, cetuximab 5 µg/ml or trametinib 10 nM, versus DMSO vehicle
Measurement: 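Mean viability per well relative to non-targeting pool 2 siRNA, plus a synergy score weighing the joint knock-down and drug effect against each effect alone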
Scale: synergy score with trametinib and synergy score with cetuximab and synergy score with BYL719: higher = stronger synergy of knock-down with drug; viability without drug (DMSO) and viability with trametinib: higher = more viable cells
Rule for the call: 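Active if the synergy score is above 0.10 for at least one of the three drugs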
Calls: active = synergy with at least one drug; inactive = no synergy with any drug

no.	gene knocked down	reagent	synergy score with trametinib	synergy score with cetuximab	synergy score with BYL719	viability without drug (DMSO) (fraction of control)	viability with trametinib (fraction of control)
1	NLK	1	-0.061	-0.00174	-0.228	1	0.555
2	NLK	2	0.314 (active)	0.183	-0.23	1	0.18
3	NLK	3	0.129 (active)	0.255	-0.174	0.999	0.364
4	NLK	4	-0.0434	0.0978	-0.23	1	0.538
5	COASY	1	-0.105	-0.112	-0.0964	0.855	0.528
6	COASY	2	0.0202	0.0136	0.0326	1	0.474
7	COASY	3	0.144 (active)	-0.0242	-0.074	0.718	0.21
8	COASY	4	0.0221	-0.0338	-0.147	0.436	0.194
9	HSPB8	1	0.247 (active)	-0.0663	0.0224	1	0.247
10	HSPB8	2	0.00383	0.068	-0.23	1	0.49
11	HSPB8	3	0.0368	0.052	-0.269	0.846	0.381
12	HSPB8	4	0.0936	0.0757	-0.216	1	0.401
13	SYK	1	0.128 (active)	0.146	-0.048	0.713	0.224
14	SYK	2	0.297 (active)	0.0987	-0.089	1	0.197
15	SYK	3	0.293 (active)	-0.0021	-0.0499	0.796	0.101
16	SYK	4	-0.0299	-0.0663	-0.148	1	0.524
17	BRAF	1	0.0334	-0.152	-0.0921	0.89	0.406
18	BRAF	2	0.0748	-0.0663	-0.109	1	0.419
19	BRAF	3	-0.128	-0.06	-0.132	0.764	0.505
20	BRAF	4	0.017	-0.0663	-0.23	1	0.477
21	CDK6	1	0.0131	-0.00306	-0.34	0.857	0.41
22	CDK6	2	0.0967	-0.208	-0.195	0.755	0.276
23	CDK6	3	0.0456	-0.116	-0.132	0.887	0.393
24	CDK6	4	0.0207	-0.26	-0.2	0.792	0.371
25	GRK5	1	0.102 (active)	-0.0663	-0.23	1	0.393
26	GRK5	2	0.0045	-0.0663	-0.23	1	0.49
27	GRK5	3	0.127 (active)	-0.0164	-0.0387	0.728	0.232
28	GRK5	4	0.0713	-0.0599	-0.242	0.985	0.416
29	IRAK3	1	-0.0756	-0.0359	-0.249	0.576	0.36
30	IRAK3	2	0.0268	-0.147	-0.304	0.86	0.398
31	IRAK3	3	-0.0247	0.0175	-0.0948	0.931	0.485
32	IRAK3	4	-0.109	-0.105	-0.262	0.959	0.582
33	IKBKB	1	-0.0651	-0.056	-0.0636	0.713	0.417
34	IKBKB	2	0.0675	-0.0663	-0.23	1	0.427
35	IKBKB	3	0.0576	-0.0333	-0.146	0.906	0.39
36	IKBKB	4	0.014	-0.0663	-0.23	1	0.48

In a second layout: 6 of the entries above
{"gene knocked down":"CDK6","reagent":3,"synergy score with trametinib":0.0456,"synergy score with cetuximab":-0.116,"synergy score with BYL719":-0.132,"viability without drug (DMSO) (fraction of control)":0.887,"viability with trametinib (fraction of control)":0.393}
{"gene knocked down":"CDK6","reagent":4,"synergy score with trametinib":0.0207,"synergy score with cetuximab":-0.26,"synergy score with BYL719":-0.2,"viability without drug (DMSO) (fraction of control)":0.792,"viability with trametinib (fraction of control)":0.371}
{"gene knocked down":"GRK5","reagent":1,"synergy score with trametinib":"0.102 (active)","synergy score with cetuximab":-0.0663,"synergy score with BYL719":-0.23,"viability without drug (DMSO) (fraction of control)":1,"viability with trametinib (fraction of control)":0.393}
{"gene knocked down":"GRK5","reagent":2,"synergy score with trametinib":0.0045,"synergy score with cetuximab":-0.0663,"synergy score with BYL719":-0.23,"viability without drug (DMSO) (fraction of control)":1,"viability with trametinib (fraction of control)":0.49}
{"gene knocked down":"GRK5","reagent":3,"synergy score with trametinib":"0.127 (active)","synergy score with cetuximab":-0.0164,"synergy score with BYL719":-0.0387,"viability without drug (DMSO) (fraction of control)":0.728,"viability with trametinib (fraction of control)":0.232}
{"gene knocked down":"GRK5","reagent":4,"synergy score with trametinib":0.0713,"synergy score with cetuximab":-0.0599,"synergy score with BYL719":-0.242,"viability without drug (DMSO) (fraction of control)":0.985,"viability with trametinib (fraction of control)":0.416}
